Primary screen of a compound library

Measurements from “University of Dundee, Small-Polar-MMV Screening Library” (2021), ChEMBL document CHEMBL3988442.

Mtb heat-shock: 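Assay on Mycobacterium tuberculosis, filed only as a heat shock assay from Cornell; the read-out is not stated. The concentration is filed as 10 mM, unlikely as a test dose, so the dose is not known. Higher reads as stronger inhibition (inferred: compounds with an IC50 in retests scored well above the rest). About 69,000 compounds were tested under these conditions; 1.4% (about 930) showed 50% or more at least once.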
Mtb growth Cornell: 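Whole-cell assay for inhibitors of Mycobacterium tuberculosis growth, labelled Cornell in the record; the read-out is not stated. The concentration is filed as 10 mM, unlikely as a test dose, so the dose is not known. Higher means stronger inhibition (inferred from two other growth screens of the library). Size under these conditions: about 53,000 compounds, about 900 of them at 50% or above in at least one test.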

The filed quantity is “Percent Effect” (%).
How 0% and 100% were set is not recorded. Most values in the screen are low, and negative values occur.
This is an unselected part of the compounds tested.
A dash means the value is not listed here; it may have been measured.

SMILES | Mtb heat-shock | Mtb growth Cornell
O=C(NCCCC(=O)N1Cc2ccccc2C1)NCc1nccs1 | 5.042% | 15.46%
O=C(CCCn1ccnc1)N[C@H]1CN(C2CCCC2)C[C@@H]1C1CC1 | -20.78% | 17.35%
Cc1cc(C(=O)N2CCn3cc(CN(C)C)nc3C2)no1 | -5.451% | 6.19%
CCOCC(O)CN1CCN(C(=O)c2cc(F)ccc2C)CC1 (stereo not drawn) | 9.132% | -13.94%
[H][C@@]12CCC(=O)N(CC(C)C)[C@]1([H])CCN(C(=O)Cn1ccccc1=O)C2 | -25.12% | -10.17%
Cc1cc(C)nc(CCNC(=O)[C@H]2CNC[C@@H](C(=O)N3CCCC3)C2)n1 | -2.295% | 5.959%
Cc1ccc(C(=O)N2CCN(C)C3(CCC(=O)N(C)CC3)C2)c(F)c1 (stereo not drawn) | 3.329% | -
Cn1cc(C[C@H]2[C@H](N3CCOCC3)CCN2C(=O)c2ccoc2)cn1 | 2.529% | 13.44%
Cc1nn(C)c(C)c1C1CCCN1Cc1nc(C2CC2)no1 (stereo not drawn) | -6.953% | 9.392%
COc1ncccc1CNc1snc(Cl)c1C#N | -6.636% | 23.62%
Cc1nc(C)n(CC2CN(CC(=O)Nc3cccnc3)CCO2)n1 (stereo not drawn) | 2.643% | 8.815%
CCCC(=O)NCC(Cc1cccc(F)c1)N1CCCC1=O (stereo not drawn) | -2.538% | 2.564%
Cc1nc(NS(=O)(=O)c2cc(C)c(Br)cc2C)no1 | -10.8% | -
COc1ccc(NCC2(O)CCNCC2)cc1OC | 1.946% | -5.049%
CC(C)OCc1cccc(NC(=O)N2CCCC(CCC(N)=O)C2)c1 (stereo not drawn) | -6.672% | 9.95%
Cc1nn(CC(C)C)c(N(C)C)c1CNCc1cc2ccccc2[nH]1 | 6.828% | 72.88%
COc1ccccc1CNC(=O)CN(C)C(C)c1nccs1 (stereo not drawn) | -15.74% | 6.543%
[H][C@@]12CCC(=O)N(CC(C)C)[C@]1([H])CCN(C(=O)CN1CCC(C)=N1)C2 | 5.859% | -2.923%
O=C(Nc1cccc(OCC(F)F)n1)c1ccncc1F | 12.27% | 18.52%
CN1CCc2c(C#N)c(NCCN3CCOCC3)n3cnnc3c2C1 | -15.29% | 17.55%
O=C(CCn1c(=O)oc2ccccc21)NCC(O)c1ccccc1 (stereo not drawn) | 71.18% | -6.039%
Cc1cc2[nH]c(CN3CCOC(C(F)(F)F)C3)cc(=O)n2n1 (stereo not drawn) | -32.08% | -1.852%
O=C(CN1CCc2sccc2C1)Nc1ccnc2ccnn12 | 101.6% | 105.2%
CN(CC(=O)N1CCCC1c1cnn(C)c1)Cc1ccccc1 (stereo not drawn) | -4.796% | -
COc1ccc(CN2CCn3cc(Cn4cccn4)nc3C2)cc1.O=C(O)C(F)(F)F | 4.286% | 20.44%
Cc1cc(NC2CCCN(Cc3ccc(F)cc3)C2)n2nc(C)cc2n1 (stereo not drawn) | 55.79% | 55.74%
C[C@@H]1CN(Cc2ccccc2F)CC(C(N)=O)O1 (stereo partly drawn) | -0.0471% | 22.46%
O=C(C1CCCC1)N1CCCC([C@@H]2C[C@H](C(F)F)n3ncnc3N2)C1 (stereo partly drawn) | -7.811% | -5.801%
CCC(C(=O)NC1CCCCC1)n1cccc(OC)c1=O (stereo not drawn) | -20.98% | 12.18%
Cc1n[nH]c(C)c1CCc1ccc(S(C)(=O)=O)cc1 | -20.12% | -
CCc1cc(=O)n(CC(=O)N2CCCC2)c(-c2ccccc2)n1 | -9.443% | 27.86%
CCc1[nH]nc(NC(=O)c2ccc(Cl)cn2)c1C | -0.4524% | -
O=C(O)C(F)(F)F.O=C(O)C(F)(F)F.[H][C@@]12CCCO[C@]1([H])[C@H](N(C)Cc1ccco1)CN2Cc1cnn(C)c1 | -4.795% | 7.089%
COc1ccc(C(O)CNC(=O)NCc2nc(C)cs2)cc1 (stereo not drawn) | -5.378% | -
CCOc1ccnc(NCc2nc(C)cc(=O)[nH]2)n1 | 8.945% | -62.52%
Cn1cc(NC(=O)N2CCC(NS(C)(=O)=O)CC2)ccc1=O | 2.116% | 73.41%
Cc1cnn(CC2CCCN2C(=O)Cc2ccc3c(c2)CCO3)c1 (stereo not drawn) | -3.615% | 7.5%
COc1ccc(Oc2ncccc2C(F)(F)F)cc1CN1CCCC1 | 7.068% | 8.326%
Cc1nnc(CN(Cc2ccc3c(c2)OCO3)C2CCCCC2)o1 | -16.03% | 52.33%
FC(F)(F)c1cccc(C2(CNCc3ccncc3)CCOCC2)c1 | -8.047% | 14.58%
COCCCN1CCCN(C(C)C(=O)Nc2ccnn2C(C)C)CC1 (stereo not drawn) | 2.954% | 19.5%
Cc1cccc(CN(Cc2ccccn2)S(=O)(=O)N(C)C)c1 | -11.53% | -
[H][C@@]12CCN(Cc3nc(C)cs3)C[C@@]1([H])O[C@H](c1nc(C)no1)C2 | -36.21% | -18.51%
CNS(=O)(=O)c1cnccc1N1CCN(C(C)C)CC1 | -0.7498% | -
Cc1cc(N2CCN(Cc3ccccc3)CC(O)C2)cc(C)n1 (stereo not drawn) | -18.88% | -
O=C1CN(Cc2cnc3c(-c4ccccc4)cnn3c2)CCCN1 | -19.19% | 14.81%
COc1ccc(NC(=O)CSC(F)(F)F)cn1 | -2.228% | 15.97%
CCOCC1CN(C(=O)c2ccoc2)Cc2cnn(C)c21 (stereo not drawn) | 12.41% | -38.33%
CCn1nc(C)c2nc(C(C)C)nc(NCc3ccccn3)c21 | 4.952% | 15.82%
CCCc1n[nH]c(C2CN(Cc3nnc(C4CC4)n3C)CCO2)n1 (stereo not drawn) | 3.467% | 19.68%
CCS(=O)(=O)CC(C)N(C)C(=O)NCCc1cccc(F)c1F (stereo not drawn) | 5.247% | -0.7398%
O=C(Nc1ccccc1Oc1cccc(F)c1)NC1CCS(=O)(=O)C1 (stereo not drawn) | 9.122% | -3.37%
CCc1nn(C)c(Cl)c1CN1CCC2(C1)CN(C)C(=O)O2 (stereo not drawn) | -33.57% | 3.393%
COC(=O)c1ccc(Cn2cccc(C(F)(F)F)c2=O)c(OC)c1 | -23.5% | -
[H][C@@]12CN(Cc3ccccc3F)C[C@]1([H])N(CCCN1CCOCC1)C(=O)O2 | -16.92% | -13.78%
O=C(Cc1ccccc1)N1CCC2(CC1)CC(Nc1cnccn1)CO2 (stereo not drawn) | 5.426% | 29.08%
CCn1nc(C)c2nc(C(C)C)nc(N3CCCC3)c21 | -12.36% | -28.6%
Cc1nn(C)c(Oc2ccc(Cl)cc2)c1CN1CCC(CN)C1 (stereo not drawn) | -4.503% | 25.23%
CC(=O)c1ccc(N2CCC3(CCC(=O)N(C4CC4)C3)CC2)nc1 | -10.32% | -2.08%
O=C(O)C(F)(F)F.[H][C@@]12OCCN(S(=O)(=O)CC)[C@@]1([H])CC[C@H]2OCCCn1cccn1 | 2.731% | 4.699%

Repeated from the top, 5 entries:

SMILES	Mtb heat-shock	Mtb growth Cornell
O=C(NCCCC(=O)N1Cc2ccccc2C1)NCc1nccs1	5.042%	15.46%
O=C(CCCn1ccnc1)N[C@H]1CN(C2CCCC2)C[C@@H]1C1CC1	-20.78%	17.35%
Cc1cc(C(=O)N2CCn3cc(CN(C)C)nc3C2)no1	-5.451%	6.19%
CCOCC(O)CN1CCN(C(=O)c2cc(F)ccc2C)CC1 (stereo not drawn)	9.132%	-13.94%
[H][C@@]12CCC(=O)N(CC(C)C)[C@]1([H])CCN(C(=O)Cn1ccccc1=O)C2	-25.12%	-10.17%